The other results are listed elsewhere or left out.

Sequences of proteins named here, by UniProt entry; tags and fusion partners are left off.
UniProt Q0JBA9, entry or part of it: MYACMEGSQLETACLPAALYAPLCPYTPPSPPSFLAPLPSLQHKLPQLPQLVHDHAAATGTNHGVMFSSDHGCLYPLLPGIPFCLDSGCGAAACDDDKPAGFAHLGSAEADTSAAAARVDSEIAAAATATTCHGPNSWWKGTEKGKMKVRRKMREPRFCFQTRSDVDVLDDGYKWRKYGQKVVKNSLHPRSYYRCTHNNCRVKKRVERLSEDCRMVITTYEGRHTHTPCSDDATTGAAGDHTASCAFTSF

The assay concerns the target OsWRKY34 (Oryza sativa, UniProt Q0JBA9 1-250). In words: protein-binding microarray (RPBM); PBS, 2% BSA, 51.3 ng/ul salmon testes DNA, 50 uM zinc acetate, 200 nM TF, 25 C, 1 h; high values mean tight binding. Particulars: protein: recombinant; tags: N-terminal polyhistidine and DsRed monomer fusion (pET32a); label: CyDye5-dUTP incorporated in the synthesized complementary strand; 3' TTTTT single-stranded linker to array surface; dsDNA, one strand shown. In short, it runs like this: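 Binding signal is defined as the fluorescence intensity of each feature in arbitrary units, read on an Axon 4000B scanner. Transcription factors with N-terminal polyhistidine and DsRed fusions came from E. coli BL21-CodonPlus and were purified on Ni–NTA. They were incubated at 200 nM for 1 h at 25 °C on a custom Agilent array that had been made double-stranded with Cy5-dUTP, with 50 µM zinc acetate present, and the array was washed.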
As to “TAACTATGGGCCTGTTCACTTTAATGCCATTTTTAACCTTCGGAGTCACCTAGTGCAG”, the binding signal is 8390 fluorescence intensity (a.u.).

On to “TGAGTGACATCTAAAATCTCGCATTCCTTGCATCTATCCCCGGAGTCACCTAGTGCAG”, for which the binding signal was 8190 fluorescence intensity (a.u.).

On to “AGTCCCCGACCTTTCCGTCCGTTCAGCGCCCATCCCATTGCGGAGTCACCTAGTGCAG”, for which the binding signal is 8150 fluorescence intensity (a.u.).

Consider “GGAGGGAGTATATTATATGCTTGTCCTAGGCTGACACGCCCGGAGTCACCTAGTGCAG”, for which the binding signal is 8760 fluorescence intensity (a.u.).

“TTGGATCACTCTGCCTTGTGACTCTTGCCATTTCTACTATCGGAGTCACCTAGTGCAG”: the binding signal was 8430 fluorescence intensity (a.u.).

Regarding “TGTGCATTTCTTGAAATGTTTTTTTGGGGTATAATTTCACCGGAGTCACCTAGTGCAG”, the binding signal is 13200 fluorescence intensity (a.u.).

Consider “CTCCTCTCACTCGTCTCGTCCACGGCGTAATCGCCTTGCGCGGAGTCACCTAGTGCAG”, for which the binding signal was 9790 fluorescence intensity (a.u.).

With “CTTTCATCCGTCCTTATAAGTCCAGATATAACATATCATACGGAGTCACCTAGTGCAG”, the binding signal is 8230 fluorescence intensity (a.u.).

As to “GATCTCTTTTTCTTTCTTTGGCCGCTGTAAAATAGCGAAGCGGAGTCACCTAGTGCAG”, the binding signal is 9910 fluorescence intensity (a.u.).

“TCACCGGCCTCCTCCTCCTTCGCCGCTTGCTCCTACCCCTCGGAGTCACCTAGTGCAG”: the binding signal was 9380 fluorescence intensity (a.u.).

In the case of “CCCTATCAATGACATGTGGGCCCTTATATATCTATGATATCGGAGTCACCTAGTGCAG”, the binding signal was 8590 fluorescence intensity (a.u.).

For the sequence “CGTTTTTGCGCGGTGGCACTTCACTGTCACACATGATGACCGGAGTCACCTAGTGCAG”, the binding signal is 8090 fluorescence intensity (a.u.).

As for “GTAGTCCCATGGTTTGCTTGGCTCATAATCATCTTTTTTTCGGAGTCACCTAGTGCAG”, the binding signal is 9160 fluorescence intensity (a.u.).

As for “TCTGCTTTAATCAGCCTAGTTCTCTGGACAACCTCCTGCTCGGAGTCACCTAGTGCAG”, the binding signal is 9340 fluorescence intensity (a.u.).

In the case of “CAACGCCTCTCTCTCTCCATCTCGCCGCGTCCTCCTCCTCCGGAGTCACCTAGTGCAG”, the binding signal was 9130 fluorescence intensity (a.u.).

With “GACTGACTCGGTTTCCATCAACAGTACATCTTTATTTTTCCGGAGTCACCTAGTGCAG”, the binding signal is 9680 fluorescence intensity (a.u.).

In the case of “CTACTTAAACCCATCATCCATCTCCTCCTACAACTACACACGGAGTCACCTAGTGCAG”, the binding signal is 8760 fluorescence intensity (a.u.).

For the sequence “TCGTCGCCTCCGCCTCGTGAGCTCCACTCACCTACCCCACCGGAGTCACCTAGTGCAG”, the binding signal was 12200 fluorescence intensity (a.u.).

In the case of “GCGTTTCAGTCTATTTGTCGGCGATTTTTCGCGCTTGCATCGGAGTCACCTAGTGCAG”, the binding signal is 11100 fluorescence intensity (a.u.).

Regarding “GCAGCGGCGTCGGCTTGGTTCGGGGAGGGGAGCGGAGTACCGGAGTCACCTAGTGCAG”, the binding signal was 10700 fluorescence intensity (a.u.).

For the sequence “TTTTTCCCTGAAGCTCCTGTGTGTCATCTCTCTTTTTCTTCGGAGTCACCTAGTGCAG”, the binding signal is 11100 fluorescence intensity (a.u.).

On to “ATAGTGGTGGTGGTGGGTGGGAGCAGAAGCAGAAGCAGGACGGAGTCACCTAGTGCAG”, for which the binding signal is 10900 fluorescence intensity (a.u.).

Consider “GGCAGAACATTTTCTACGACTATTTTTTCTAGATACTTTTCGGAGTCACCTAGTGCAG”, for which the binding signal was 10700 fluorescence intensity (a.u.).

As to “TTCTTTTTCTTTTTTCTCCTTGCTGTCTCAATCCTGATATCGGAGTCACCTAGTGCAG”, the binding signal is 9000 fluorescence intensity (a.u.).

With “TCTAGGTTTAGGGTTCCATTCATTTCTAGGTTGATTCTTCCGGAGTCACCTAGTGCAG”, the binding signal was 10000 fluorescence intensity (a.u.).

Regarding “CCACCTCACACTCCATTCGCGAGGCCCACGGCCCAAGTGACGGAGTCACCTAGTGCAG”, the binding signal was 9570 fluorescence intensity (a.u.).

Take “GGGTCGTCAGGATTTTCACTCTTGATGGGTTCAAATTTTGCGGAGTCACCTAGTGCAG”: the binding signal was 9650 fluorescence intensity (a.u.).

Take “TTTTGCGTGCGGGCGGTATAACTTGACCGCGGTCCACTTACGGAGTCACCTAGTGCAG”: the binding signal is 9630 fluorescence intensity (a.u.).

As for “TGTGGTGTCTAAGGTGCCATCGCATGGAAGGAAGTTGTGTCGGAGTCACCTAGTGCAG”, the binding signal is 8070 fluorescence intensity (a.u.).

With “AAGACTTTCTAGCATTCCTTACATTCATATATATGTTAATCGGAGTCACCTAGTGCAG”, the binding signal was 8580 fluorescence intensity (a.u.).

For the sequence “TAAATTTGTCTTGGGTTAAAAATGTTATTGTATTTTTCTACGGAGTCACCTAGTGCAG”, the binding signal is 8620 fluorescence intensity (a.u.).

Regarding “AACATTGGCAAAATGTCCATTCTTTTCACCTGCTGCATGCCGGAGTCACCTAGTGCAG”, the binding signal is 12100 fluorescence intensity (a.u.).

In the case of “AATTTATCCATTTTTTACTCCATTCCATGGTACTTATTTACGGAGTCACCTAGTGCAG”, the binding signal was 12200 fluorescence intensity (a.u.).

Regarding “GCTCGTCCGTGCACATCCGCTGCAATGCCACCGTCAAGTACGGAGTCACCTAGTGCAG”, the binding signal was 9940 fluorescence intensity (a.u.).

“CGTTTTTCTTTACACCCACGCAACCACCACCCAACCTCAACGGAGTCACCTAGTGCAG”: the binding signal is 9000 fluorescence intensity (a.u.).

Consider “TCGCTCCGTGCTCGACTCGTGTCTTCCACCTCATTCTCGACGGAGTCACCTAGTGCAG”, for which the binding signal was 9820 fluorescence intensity (a.u.).

As for “TTCACCCACCGAACAATCACCAGCCGTTCGATCGCGTTCCCGGAGTCACCTAGTGCAG”, the binding signal was 9180 fluorescence intensity (a.u.).

Turning to “CATTGACTTTTTCTCACATATTTGTCCATTCGTCTTATTACGGAGTCACCTAGTGCAG”, the binding signal was 16100 fluorescence intensity (a.u.).

Regarding “CGATTTGATTGGGGTTTTTTGGTTTTTTCGATGGACAGGCCGGAGTCACCTAGTGCAG”, the binding signal was 9210 fluorescence intensity (a.u.).

As to “CAGTCCCCAAGAAATATCTGTCGTTGACAAGTCAACGCCCCGGAGTCACCTAGTGCAG”, the binding signal was 9250 fluorescence intensity (a.u.).

“TTGTCTTGAGACTTATTTGCACCTCACTCATCTATATGCACGGAGTCACCTAGTGCAG”: the binding signal was 8680 fluorescence intensity (a.u.).

Take “GCAATGACCAACAACCCTATAAATTTCACTCCTTTTTGGCCGGAGTCACCTAGTGCAG”: the binding signal was 9280 fluorescence intensity (a.u.).

The values above are taken from PMC7819943, “Rice protein-binding microarrays: a tool to detect cis-acting elements near promoter regions in rice”.
